According to patent US20070135497A1, “Biphenyl derivative or its salt, and pesticide containing it as an active ingredient” (ISHIHARA SANGYO KAISHA LTD., priority 2003, published 2007):
Some results were stated once for a whole list of compounds, not compound by compound.

Tests used:
[1] = tested on: fungi of powdery mildew (wheat powdery mildew); test: Test on preventive effect against wheat powdery mildew; format: in vivo, Wheat (cultivar: Norin-61-go); details: foliar spray before inoculation, area of sporogony 6 to 7 days after inoculation
[2] = tested on: fungi of powdery mildew (cucumber powdery mildew); test: Test on preventive effect against cucumber powdery mildew; format: in vivo, Cucumber (cultivar: Sagamihanpaku); details: foliar spray before inoculation, area of sporogony 6 to 7 days after inoculation

SMILES | controlling index ([1]; 400 ppm) | also measured
CC#CCN(C)C(=O)c1cccc(-c2c(Cl)cccc2Cl)c1 [1-156] | 4 (Area of lesions, number of lesions or area of sporogony is less than 10% of non-treated plot) | controlling index ([2]; 400 ppm): 4 (Area of lesions, number of lesions or area of sporogony is less than 10% of non-treated plot)
CN(C)C(=O)c1cccc(-c2c(Cl)ccc(C(F)(F)F)c2Cl)c1 [1-121] |  | controlling index ([1]; 100 ppm): 4 (Area of lesions, number of lesions or area of sporogony is less than 10% of non-treated plot); controlling index ([2]; 100 ppm): 4 (Area of lesions, number of lesions or area of sporogony is less than 10% of non-treated plot)
Cc1ccc(CN(C)C(=O)c2cccc(-c3c(Cl)cccc3Cl)c2)cc1 [1-184] | 4 (Area of lesions, number of lesions or area of sporogony is less than 10% of non-treated plot) | controlling index ([2]; 400 ppm): 4 (Area of lesions, number of lesions or area of sporogony is less than 10% of non-treated plot)
CC#CCN(C)C(=O)c1cccc(-c2c(F)cccc2Cl)c1 [1-189] | 4 (Area of lesions, number of lesions or area of sporogony is less than 10% of non-treated plot) | controlling index ([2]; 400 ppm): 4 (Area of lesions, number of lesions or area of sporogony is less than 10% of non-treated plot)
CNC(=O)c1cccc(-c2c(C(F)(F)F)ccc(F)c2Cl)c1 [1-68] |  | controlling index ([2]; 400 ppm): 4 (Area of lesions, number of lesions or area of sporogony is less than 10% of non-treated plot)
C#CCN(C)C(=O)c1cccc(-c2c(C)cc(Cl)cc2C)c1 [Compound No. 1-14, N-methyl-N-propargyl-3-(4′-chloro-2′,6′-dimethylphenyl)benzylamide] | 4 (Area of lesions, number of lesions or area of sporogony is less than 10% of non-treated plot) | controlling index ([2]; 400 ppm): 4 (Area of lesions, number of lesions or area of sporogony is less than 10% of non-treated plot)
C#CCN(C)C(=O)c1cccc(-c2c(Cl)ccc(Cl)c2Cl)c1 [1-75, N-methyl-N-propargyl-3-(2′,3′,6′-trichlorophenyl)benzamide] | 4 (Area of lesions, number of lesions or area of sporogony is less than 10% of non-treated plot) | controlling index ([2]; 400 ppm): 4 (Area of lesions, number of lesions or area of sporogony is less than 10% of non-treated plot)
CCCN(C)C(=O)c1cccc(-c2c(C)cc(C)cc2C)c1 [Compound No. 1-4, N-methyl-N-n-propyl-3-(2′,4′,6′-trimethylphenyl)benzamide] | 4 (Area of lesions, number of lesions or area of sporogony is less than 10% of non-treated plot) | controlling index ([2]; 400 ppm): 4 (Area of lesions, number of lesions or area of sporogony is less than 10% of non-treated plot)
Cc1cc(C)c(-c2cccc(C(=O)N(C)Cc3ccccc3)c2)c(C)c1 [1-21] | 4 (Area of lesions, number of lesions or area of sporogony is less than 10% of non-treated plot) | controlling index ([2]; 400 ppm): 4 (Area of lesions, number of lesions or area of sporogony is less than 10% of non-treated plot)
CN(Cc1ccc(F)c(F)c1)C(=O)c1cccc(-c2c(Cl)cccc2Cl)c1 [1-183] | 4 (Area of lesions, number of lesions or area of sporogony is less than 10% of non-treated plot) | controlling index ([2]; 400 ppm): 4 (Area of lesions, number of lesions or area of sporogony is less than 10% of non-treated plot)
CNC(=O)c1cccc(-c2c(Cl)ccc(C)c2F)c1 [1-112] | 4 (Area of lesions, number of lesions or area of sporogony is less than 10% of non-treated plot) | controlling index ([2]; 400 ppm): 4 (Area of lesions, number of lesions or area of sporogony is less than 10% of non-treated plot)
CN(Cc1ccc(C#N)cc1)C(=O)c1cccc(-c2c(Cl)cccc2Cl)c1 [1-175] | 4 (Area of lesions, number of lesions or area of sporogony is less than 10% of non-treated plot) | controlling index ([2]; 400 ppm): 4 (Area of lesions, number of lesions or area of sporogony is less than 10% of non-treated plot)
O=CNc1cccc(-c2c(Cl)cccc2Oc2ccc(C(F)(F)F)cn2)c1 [1-231] |  | controlling index ([2]; 400 ppm): 4 (Area of lesions, number of lesions or area of sporogony is less than 10% of non-treated plot)
CNC(=O)c1cccc(-c2c(Cl)ccc([N+](=O)[O-])c2Cl)c1 [1-109, N-methy1-3-(2′,6′-dichloro-3′-nitrophenyl)benzamide] |  | controlling index ([2]; 400 ppm): 4 (Area of lesions, number of lesions or area of sporogony is less than 10% of non-treated plot)
CN(Cc1ccc(OC(F)(F)F)cc1)C(=O)c1cccc(-c2c(Cl)cccc2Cl)c1 [1-177] | 4 (Area of lesions, number of lesions or area of sporogony is less than 10% of non-treated plot) | 
Cc1cc(C)c(-c2cccc(N)c2)c(C)c1 [1-202] | 4 (Area of lesions, number of lesions or area of sporogony is less than 10% of non-treated plot) | 
CSc1cc(Cl)c(-c2cccc(NC(C)=O)c2)c(Cl)c1 [1-50] | 4 (Area of lesions, number of lesions or area of sporogony is less than 10% of non-treated plot) | 
C=CCN(C)C(=O)c1cccc(-c2c(C)cc(C)cc2C)c1 [1-9] | 4 (Area of lesions, number of lesions or area of sporogony is less than 10% of non-treated plot) | 
CC(C)=CCCC(C)=CCN(C)C(=O)c1cccc(-c2c(Cl)cccc2Cl)c1 [1-158] | 4 (Area of lesions, number of lesions or area of sporogony is less than 10% of non-treated plot) | 
O=C(NCc1ccncc1)c1cccc(-c2c(Cl)cccc2Cl)c1 [1-166] | 4 (Area of lesions, number of lesions or area of sporogony is less than 10% of non-treated plot) | 
CNC(=O)c1cccc(-c2c(C)cc(Cl)cc2C)c1 [Compound No. 1-23, N-methyl-3-(4′-chloro-2′,6′-dimethylphenyl)benzamide] | 4 (Area of lesions, number of lesions or area of sporogony is less than 10% of non-treated plot) | 
Nc1cccc(-c2ccc(C(F)(F)F)cc2Cl)c1 [1-211] | 4 (Area of lesions, number of lesions or area of sporogony is less than 10% of non-treated plot) | 

SMILES | controlling index ([1]; 400 ppm) | also measured
CNC(=O)c1cccc(-c2c(C)cc(C)cc2C)c1 [1-22, N-methyl-3-(2′,4′,6′-trimethylphenyl)benzamide] | 4 (Area of lesions, number of lesions or area of sporogony is less than 10% of non-treated plot) | 
C#CCN(C)C(=O)c1ccc(C)c(-c2ccc(Cl)cc2Cl)c1 [2-20] | 4 (Area of lesions, number of lesions or area of sporogony is less than 10% of non-treated plot) | 
C#CCN(C)C(=O)c1cccc(-c2c(C(F)(F)F)ccc(F)c2Cl)c1 [1-265] | 4 (Area of lesions, number of lesions or area of sporogony is less than 10% of non-treated plot) | 
CC(=O)Nc1cccc(-c2c(Cl)cc([S+](C)[O-])cc2Cl)c1 (stereo not shown) [1-199] | 4 (Area of lesions, number of lesions or area of sporogony is less than 10% of non-treated plot) | 
Cc1cc(C)c(-c2cccc(C(=O)NCC#N)c2)c(C)c1 [1-19] | 4 (Area of lesions, number of lesions or area of sporogony is less than 10% of non-treated plot) | 
CNC(=S)c1cccc(-c2c(C)cc(C)cc2C)c1 [1-142, N-methyi-3-(2′,4′,6′-trimethylphenyl)thiobenzamide] | 4 (Area of lesions, number of lesions or area of sporogony is less than 10% of non-treated plot) | 
O=CN(Cc1ccc(F)cc1)c1cccc(-c2c(Cl)cccc2Cl)c1 [1-213] | 4 (Area of lesions, number of lesions or area of sporogony is less than 10% of non-treated plot) | 
CN(Cc1ccccn1)C(=O)c1cccc(-c2c(Cl)cccc2Cl)c1 [1-264] | 4 (Area of lesions, number of lesions or area of sporogony is less than 10% of non-treated plot) | 
C#CCN(Cc1cccnc1)Cc1cccc(-c2c(Cl)cccc2Cl)c1 [1-241] | 4 (Area of lesions, number of lesions or area of sporogony is less than 10% of non-treated plot) | 
Cc1cc(C)c(-c2cccc(C(=O)N(C)CC#N)c2)c(C)c1 [1-18] | 4 (Area of lesions, number of lesions or area of sporogony is less than 10% of non-treated plot) | 
CN(Cc1ccccc1)C(=O)c1cccc(-c2c(F)cccc2C(F)(F)F)c1 [1-187] | 4 (Area of lesions, number of lesions or area of sporogony is less than 10% of non-treated plot) | 
CN(Cc1ccc(Cl)nc1)C(=O)c1cccc(-c2ccc(Cl)cc2Cl)c1 [1-227] | 4 (Area of lesions, number of lesions or area of sporogony is less than 10% of non-treated plot) | 
CNc1cccc(-c2c(C)cc(C)cc2C)c1 [1-201] | 4 (Area of lesions, number of lesions or area of sporogony is less than 10% of non-treated plot) | 
Cc1cc(C)c(-c2cccc(NN(C)C)c2)c(C)c1 [1-59] | 4 (Area of lesions, number of lesions or area of sporogony is less than 10% of non-treated plot) | 
CNC(=O)c1cccc(-c2c(Cl)c(Cl)cc(Cl)c2Cl)c1 [1-196] | 4 (Area of lesions, number of lesions or area of sporogony is less than 10% of non-treated plot) | 
CN(C=O)c1cccc(-c2c(Cl)cccc2Cl)c1 [1-217] | 4 (Area of lesions, number of lesions or area of sporogony is less than 10% of non-treated plot) | 
CNC(=O)c1cccc(-c2c(Cl)cc(Cl)cc2Cl)c1 [1-66] | 4 (Area of lesions, number of lesions or area of sporogony is less than 10% of non-treated plot) | 
CCNC(=O)c1cccc(-c2c(C)cc(C)cc2C)c1 [1-25] | 4 (Area of lesions, number of lesions or area of sporogony is less than 10% of non-treated plot) | 
C#CCNC(=O)c1cccc(-c2c(C)cc(C)cc2C)c1 [1-16] | 4 (Area of lesions, number of lesions or area of sporogony is less than 10% of non-treated plot) | 
C=CCN(C=O)c1cccc(-c2c(Cl)cccc2Cl)c1 [1-212] | 4 (Area of lesions, number of lesions or area of sporogony is less than 10% of non-treated plot) | 
CN(Cc1cccnc1)Cc1cccc(-c2c(Cl)cccc2Cl)c1 [1-239] | 4 (Area of lesions, number of lesions or area of sporogony is less than 10% of non-treated plot) | 
CNC(=O)c1cccc(-c2c(C)cc(OC)cc2C)c1 [1-65, N-methyl-3-(2′,6′-dimethyl-4′-methoxyphenyl)benzamide] | 4 (Area of lesions, number of lesions or area of sporogony is less than 10% of non-treated plot) | 
